107 sequences from PubChem BioAssay AID1347426 (Functional Genomics Laboratory (NCATS/FGL), 2020) can be followed below.

The whole screen tested about 31,000 sequences, of which about 1,400 (4.5%) were called active.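 The calls were made as follows: active = median seed-adjusted z-score above 1 or below -1; inactive = the rest.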 The list shows a part of the results.

The assay in a line: Novel Modifiers of Survival Motor Neuron (SMN) Protein: Gene Identification via Genome-wide siRNA Screen.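 Also: luminescence tracks full-length SMN protein made from the SMN2 reporter.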 Conditions: HEK293T SMN2-luciferase reporter, siRNA knockdown, 72 h; actives lie on both sides. Summed up: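 Luciferase signal, proportional to full-length SMN made from an SMN2 cDNA reporter in stable HEK293T cells, was read 72 h after siRNA reverse transfection. Values were expressed as MAD scores after non-targeting-control normalization and log10 conversion; seed analysis flagged off-targets.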
(Reporter assays use an easily measured gene product as a stand-in for the process of interest.)
Turning to CCAGAGGAAUUGACUACUATT against SLC12A4, the median seed-adjusted z-score was inactive: -0.0667. As for GCUCGACACUAUCAGGGAUTT against PSMD8, the figure is inactive: 0.0952; as for CAAACGGCCUUACCAGAAATT against EAF1, inactive: -0.931. For the sequence CCACUACAAAGGAAGUAAATT against ZNF385B, the median seed-adjusted z-score was inactive: 0.446.

Take ACAAUGAACUGGAUCAACATT against TBX20: the median seed-adjusted z-score was inactive: 0.00303. For the sequence GGAAUUCCCUGUAAGGAGATT against ADAM29, the median seed-adjusted z-score is inactive: 0.904. In the case of GCUCUUUUCACAAAUCUUUTT against TUBGCP6, the median seed-adjusted z-score was inactive: 0. Take GCAGAGAACUGUGACUCCATT against DRD5: the median seed-adjusted z-score was inactive: -0.18.

With GGAAGAUGCUGAAAUCAAATT against TSKS, the median seed-adjusted z-score was inactive: -0.0409. On to CGACAACUACUGUGAAAAATT against DUSP8, for which the median seed-adjusted z-score was inactive: -0.0326. Regarding CUACCUCAUUAUUUAGCAATT against SLC7A13, the median seed-adjusted z-score is inactive: 0.121. Consider CCGUCAUGCACUUACCUUUTT against ADCY9, for which the median seed-adjusted z-score was inactive: 0.269. On to GGAAGUUCGCAGAAAAGUATT against PDIA5, for which the median seed-adjusted z-score was inactive: 0.989.

As for GGAUGUGCAGGCUACCAAATT against LIPT1, the median seed-adjusted z-score was inactive: 0.552. CCAGGGUCAUUGUGGAUUUTT against SFXN4: the median seed-adjusted z-score is inactive: -0.174. For the sequence CCAUUGCCUUAUUCGAAAUTT against SPZ1, the median seed-adjusted z-score is inactive: 0.535. Take CAACUGGAUUACUAGCAUUTT against ADD3: the median seed-adjusted z-score is inactive: 0.0741.

For the sequence CGGGAUGUAUUACUCCUUATT against KCNC1, the median seed-adjusted z-score was inactive: 0.73. As for CUGUGAUGCAUGAUUCUAATT against HERC6, the figure is inactive: 0.324; as for GGAAUGGACUCAGUGAUCATT against PFTK1, inactive: 0.088. For CGGAUGUCAUCGUCACAGATT against ALDH18A1, the median seed-adjusted z-score is inactive: 0.116. With AGCGCCUCCUGUUUCGACATT against ZNF579, the median seed-adjusted z-score was inactive: -0.0604. Take GUAAAAGCCCUAAAACGAUTT against ARHGEF6: the median seed-adjusted z-score was inactive: -0.0593. As for CAGUCGACUUAAACAACCATT against USP33, the median seed-adjusted z-score was inactive: -0.63. For the sequence GGACUUUGCCUACUCCUCATT against KLHL25, the median seed-adjusted z-score is inactive: -0.0146. Take GCAAUUGAAGUGGUUGAUATT against UBE2Q2: the median seed-adjusted z-score is inactive: 0.146. For the sequence GGAAUUCGAGGAUUAUGCATT against HIAT1, the median seed-adjusted z-score was inactive: -0.0612.

In the case of GGACAAAGUCUUAACAAAATT against SLC30A10, the median seed-adjusted z-score was inactive: 0.523.

For GCUAAUCCCUCUGAGAAAATT against MS4A1, the median seed-adjusted z-score is inactive: 0.414.

With GAGCGAGUCUGUAAUCUGATT against ALDH6A1, the median seed-adjusted z-score is inactive: -0.0908.

Take CAAGGUCUGUAGUCAAAAUTT against ZNF677: the median seed-adjusted z-score was inactive: -0.441. With GGAUGAUUUUGCGAAUAAUTT against CAPN7 the figure was inactive: 0.125; with GGAUAUAUUUGGUCAUGGATT against CPA3, inactive: 0.192.

As to CCGGCUACCUAGUGACUAATT against PCDHGB6, the median seed-adjusted z-score was inactive: 0.34.

On to GCAAAACCCUGGAAGGAUATT against KCTD11, for which the median seed-adjusted z-score is inactive: 0.374.

Turning to CACUUGAUCUCUUAACCAUTT against 10-Sep, the median seed-adjusted z-score was inactive: 0.571. As for GAUCGAUACUUGAUAAUUATT against SUCNR1, the figure is inactive: 0; as for GGCAAUAAAAUCUCCAUUUTT against KLRC4, inactive: -0.218; as for GAGUGGAAAUUUCACCUAUTT against IFNAR2, inactive: -0.219. On to GAUUCUAGUUGGUGUGAAATT against MRGPRX4, for which the median seed-adjusted z-score is inactive: -0.113. With CAACCUAAAAAGAACUCGATT against FNBP1 the figure was inactive: -0.168; with CGAGGAGCUGAAUUCCCAATT against SLC9A3R1, inactive: -0.418. Turning to GCCUUGCGCUAAAUCUCGATT against NSD1, the median seed-adjusted z-score was inactive: -0.372.

Consider GAAUUCAUCUUCUGCUAUATT against GPR110, for which the median seed-adjusted z-score is inactive: 0.0158. For the sequence GGUGAUUGUUCAUUUGACATT against ERAS, the median seed-adjusted z-score is inactive: 0.289.

For the sequence CGGAAUACUCUGACUCGAATT against GLT8D2, the median seed-adjusted z-score is inactive: -0.619. Take AGACAAUGAUCAUAGACAATT against IDH3B: the median seed-adjusted z-score is inactive: -0.642.

As to GAGUAAAUAUCUCAGAUGATT against CHP, the median seed-adjusted z-score was inactive: -0.35. Turning to GACUUCUACUUUGAGAAAATT against NDST1, the median seed-adjusted z-score is inactive: -0.0763.

On to GACGAUAUCUAAUAUUACATT against KPNA1, for which the median seed-adjusted z-score was inactive: -0.0231.

Take GACUAGCAGGACUCCCUUUTT against VARS: the median seed-adjusted z-score was inactive: 0.237. As for GCUGUGCUCAAAACUGUCATT against PILRB, the figure is inactive: 0.0351. As for GGCUCAGGGUGAAUUACAATT against PLA2G2D, the median seed-adjusted z-score is inactive: 0.361. As for CGUGGAGAAGGGUACUCAATT against SERPINA1, the median seed-adjusted z-score was inactive: 0.00292.

For GGGAGAAGGCUCAAGUGUATT against SLC23A3, the median seed-adjusted z-score was inactive: -0.254. Regarding GACCUAGAAAAGAAACGAATT against ANK2, the median seed-adjusted z-score was inactive: 0. Regarding GCACUAUGCUGGAUACAAATT against PGAP1, the median seed-adjusted z-score is inactive: -0.272. Take AAUAUGAACUGGAGAUGUATT against GTPBP5: the median seed-adjusted z-score is inactive: 0.0354. On to CAUUCUUUUGAGCAGGUUATT against ACSL6, for which the median seed-adjusted z-score was inactive: -0.0934. As for CCCUCGAGUUGGAAAUAAATT against CLDN9, the median seed-adjusted z-score is inactive: 0.398.

UGAUCAUUUAAGACACUAATT against DIO1: the median seed-adjusted z-score is inactive: 0.0467. As for GAACAGGGAUGAAAGAAGATT against ZC3H11A, the figure is inactive: -0.137. Regarding AGUUUUCUGUAUGCAGUUATT against RBM23, the median seed-adjusted z-score is inactive: 0.14. Regarding CCCAUUAAGAUUAAUCUAATT against EIF2S1, the median seed-adjusted z-score was inactive: -0.175. For CAUCUACAAAUGGUAUAAATT against AGA, the median seed-adjusted z-score was inactive: -0.0433.

Turning to CCGAAGCAGCUGAUCAGAATT against AKAP7, the median seed-adjusted z-score was inactive: 0.37. As for GGCUCUUACAGACAGCUUUTT against SRI, the figure is inactive: 0.994. Consider GAAUAAGCAAGUCUUCUUUTT against ANG, for which the median seed-adjusted z-score is inactive: -0.481. Turning to UGGCUGGAGUGGUCAAUAATT against MFSD3, the median seed-adjusted z-score is inactive: -0.0706. Turning to GGAGUCGAGCAGUCCUUUATT against KCNH8, the median seed-adjusted z-score is inactive: 0. In the case of CGGCUACUAUGGUGCUCUATT against ITGB7, the median seed-adjusted z-score was inactive: 0.443.

As to GGAGACGUGGAGUACCUUATT against HDAC5, the median seed-adjusted z-score was inactive: -0.342. Consider GUAACAACAAAUACUCAUATT against KCTD10, for which the median seed-adjusted z-score was inactive: -0.506.

For GGUCAAGAAGCAAUGCCCATT against SPRR4, the median seed-adjusted z-score was inactive: 0.211.

As to GACCCAUGAUCCUAACAAATT against PLAGL2, the median seed-adjusted z-score is inactive: 0.0744. For the sequence CAACAGUUCUGGGUGAAUATT against CYP24A1, the median seed-adjusted z-score is inactive: 0.136. As for GCCUUCGCUUUGAACCCAATT against ART5, the figure is inactive: -0.354; as for GGAACAUGCUUAAGGUUGUTT against TDO2, inactive: -0.141. On to GCGUAUUAAUAAUCACGAATT against MDN1, for which the median seed-adjusted z-score was inactive: 0.187. As for CGAAGAAGCUAGACUCAGATT against ZNF346, the figure is inactive: 0.00564. Regarding CCAUGAUCCUGUGGAUAAATT against HNRNPA2B1, the median seed-adjusted z-score was active: 1.33. Turning to GCACUGACUGAAUAAAGCUTT against GPBAR1, the median seed-adjusted z-score is inactive: -0.00293.

Take CCUAUGCAGUAAUCUAUUUTT against CDC14A: the median seed-adjusted z-score was inactive: 0.117. For ACAAGAUGUAUCACCUAUATT against ZNF226, the median seed-adjusted z-score is inactive: 0.437. For GCCGAGGAUUGGUUCUUCATT against KRT17, the median seed-adjusted z-score is inactive: -0.0871. With GCUGAGAACUAAGAGAUGATT against PDLIM4, the median seed-adjusted z-score is inactive: -0.637. As to GAUCAAGUCCAAUAUCGAUTT against RALY, the median seed-adjusted z-score is inactive: 0. With AGAAGAUUGAUUUUUCUGATT against S100A7, the median seed-adjusted z-score is inactive: -0.253. With GGGUCAGAGUGGGAGCAUUTT against VWA2, the median seed-adjusted z-score is inactive: 0.584.

Consider CACUAUUGCAUGUAUCGAATT against ARHGAP10, for which the median seed-adjusted z-score was inactive: -0.458. As for GGACAACGAUAACCGAUCATT against CA1, the median seed-adjusted z-score is inactive: 0.262.

Consider CACUUAUCCCUUAAUCUUUTT against PIGB, for which the median seed-adjusted z-score is inactive: 0.199.

Turning to ACAAUAUCAAGGAACAGGATT against GZMH, the median seed-adjusted z-score was inactive: 0.946. For GGAAGUUCCGUUUGACGUATT against LRPPRC, the median seed-adjusted z-score is inactive: -0.373. For the sequence CCGUAAUCGACAAAACUUUTT against SDHA, the median seed-adjusted z-score is inactive: -0.103. As to GAAUUACAGUGACAGUUCATT against AP3M1, the median seed-adjusted z-score is inactive: 0. Consider CAGAUAGACAAGAUAUUCATT against ARHGEF7, for which the median seed-adjusted z-score was inactive: 0.185. AAAUUUCACCGGCACCAAATT against TBR1: the median seed-adjusted z-score is inactive: -0.388. With GGGACAAGAAAACUAGUUATT against CARD6 the figure was inactive: 0. With GGUUCAAUGUUGGAUAUCATT against STK39 the figure was inactive: 0.232. On to AGAUAUUCUUGAUACUGGATT against NTS, for which the median seed-adjusted z-score was inactive: 0.518.

CCAAAGUGGGUGUCAACGATT against BGN: the median seed-adjusted z-score is inactive: 0.376. With AGGUCAAAGCCUUCCAUUATT against HMHA1, the median seed-adjusted z-score is inactive: -0.285. As to ACAUGAUUGGGAUCCACGATT against EMID2, the median seed-adjusted z-score is inactive: 0.0465. As for CAGCCGAACGAGUACCUGATT against CPNE7, the figure is inactive: 0.262; as for ACUGACAUUUUUCAACUCATT against ALDH1L1, inactive: 0.0289; as for GAAAUAUACUUCAGAUUCATT against SP2, inactive: -0.617.
